Patent US8476434B2, “Protein kinase modulators and method of use” (Amgen Inc., priority 2004, dated 2013)
Some results were stated once for a whole list of compounds, not compound by compound.

Protein sequences, listed by entry. Tags and fused reporters are not part of them. Residues count along the entry.
UniProt Q02763, 23-1124: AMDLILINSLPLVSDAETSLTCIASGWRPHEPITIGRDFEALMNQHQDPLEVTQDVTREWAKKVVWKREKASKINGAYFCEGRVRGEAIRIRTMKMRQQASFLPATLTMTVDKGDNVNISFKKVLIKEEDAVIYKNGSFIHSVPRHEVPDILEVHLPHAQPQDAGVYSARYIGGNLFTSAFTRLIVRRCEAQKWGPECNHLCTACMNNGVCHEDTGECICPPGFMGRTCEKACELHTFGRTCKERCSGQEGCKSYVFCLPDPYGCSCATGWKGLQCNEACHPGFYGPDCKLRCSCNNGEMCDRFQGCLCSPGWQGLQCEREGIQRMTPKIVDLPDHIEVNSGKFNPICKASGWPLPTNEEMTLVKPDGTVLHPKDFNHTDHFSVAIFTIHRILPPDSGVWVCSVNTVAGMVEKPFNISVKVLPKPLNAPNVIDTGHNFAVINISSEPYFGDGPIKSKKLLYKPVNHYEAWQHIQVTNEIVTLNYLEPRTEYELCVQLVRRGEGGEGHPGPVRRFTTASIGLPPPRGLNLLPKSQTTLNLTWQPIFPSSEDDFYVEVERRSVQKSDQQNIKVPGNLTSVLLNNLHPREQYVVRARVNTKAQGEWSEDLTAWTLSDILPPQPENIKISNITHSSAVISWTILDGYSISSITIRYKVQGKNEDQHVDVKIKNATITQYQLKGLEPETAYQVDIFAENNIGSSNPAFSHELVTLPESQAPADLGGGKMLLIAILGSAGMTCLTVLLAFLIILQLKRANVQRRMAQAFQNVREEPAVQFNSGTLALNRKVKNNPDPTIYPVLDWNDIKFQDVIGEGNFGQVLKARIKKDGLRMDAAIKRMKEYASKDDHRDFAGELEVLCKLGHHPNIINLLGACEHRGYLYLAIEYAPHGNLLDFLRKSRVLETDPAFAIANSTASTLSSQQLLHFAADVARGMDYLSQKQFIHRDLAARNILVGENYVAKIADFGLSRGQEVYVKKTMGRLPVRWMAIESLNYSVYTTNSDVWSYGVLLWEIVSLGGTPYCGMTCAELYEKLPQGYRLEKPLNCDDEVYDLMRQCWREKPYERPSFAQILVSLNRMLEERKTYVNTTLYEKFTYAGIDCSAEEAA

molecular target: Tie-2 kinase enzyme (Homo sapiens, UniProt Q02763); assay: Tie-2 Homogenous Time Resolved Fluorescent (HTRF) kinase assay; format: biochemical; settings: read-out: IC50's for the inhibition of Tie-2 as measured by the HTRF assay

SMILES	IC50 [µM]
Cc1ccc(C(=O)Nc2cccc(CO)c2)cc1Nc1ncccc1-c1ccncn1 [Example 129, N-(3-(hydroxymethyl)phenyl)-4-methyl-3-((3-(4-pyrimidinyl)-2-pyridinyl)amino)benzamide]	< 5
Cc1ccc(C(=O)Nc2ccc(F)c(Cl)c2)cc1Nc1ncccc1-c1ccncn1 [Example 131, N-(3-chloro-4-fluorophenyl)-4-methyl-3-((3-(4-pyrimidinyl)-2-pyridinyl)amino)benzamide]	< 5
Cc1ccc(C(=O)Nc2cccc(C(N)=O)c2)cc1Nc1ncccc1-c1ccncn1 [Example 133, N-(3-(aminocarbonyl)phenyl)-4-methyl-3-((3-(4-pyrimidinyl)-2-pyridinyl)amino)benzamide]	< 5
Cc1cc(C)cc(NC(=O)c2ccc(C)c(Nc3ncccc3-c3ccncn3)c2)c1 [Example 134, N-(3,5-dimethylphenyl)-4-methyl-3-((3-(4-pyrimidinyl)-2-pyridinyl)amino)benzamide]	< 5
Cc1ccc(C(=O)Nc2cc(Cl)cc(Cl)c2)cc1Nc1ncccc1-c1ccncn1 [Example 135, N-(3,5-dichlorophenyl)-4-methyl-3-((3-(4-pyrimidinyl)-2-pyridinyl)amino)benzamide]	< 5
Cc1ccc(C(=O)Nc2ccccc2C(C)C)cc1Nc1ncccc1-c1ccncn1 [Example 136, 4-methyl-N-(2-(1-methylethyl)phenyl)-3-((3-(4-pyrimidinyl)-2-pyridinyl)amino)benzamide]	< 5
Cc1ccc(C(=O)Nc2cccc(C(C)(C)C)c2)cc1Nc1ncccc1-c1ccncn1 [Example 137, N-(3-(1,1-dimethylethyl)phenyl)-4-methyl-3-((3-(4-pyrimidinyl)-2-pyridinyl)amino)benzamide]	< 5
COc1ccc(Cl)cc1NC(=O)c1ccc(C)c(Nc2ncccc2-c2ccncn2)c1 [Example 143, N-(5-chloro-2-(methyloxy)phenyl)-4-methyl-3-((3-(4-pyrimidinyl)-2-pyridinyl)amino)benzamide]	< 5
Cc1ccc(C(=O)Nc2cccc(C(=O)c3ccccc3)c2)cc1Nc1ncccc1-c1ccncn1 [Example 144, 4-methyl-N-(3-(phenylcarbonyl)phenyl)-3-((3-(4-pyrimidinyl)-2-pyridinyl)amino)benzamide]	< 5
Cc1ccc(C(=O)NCCC(C)(C)C)cc1Nc1ncccc1-c1ccncn1 [Example 146, N-(3,3-dimethylbutyl)-4-methyl-3-((3-(4-pyrimidinyl)-2-pyridinyl)amino)benzamide]	< 5
Cc1ccc(C(=O)NCC2CCCCC2)cc1Nc1ncccc1-c1ccncn1 [Example 148, N-(cyclohexylmethyl)-4-methyl-3-((3-(4-pyrimidinyl)-2-pyridinyl)amino)benzamide]	< 5
Cc1ccc(C(=O)Nc2cc(C(C)(C)C)nn2-c2ccccc2)cc1Nc1ncccc1-c1ccncn1 [Example 149, N-(3-(1,1-dimethylethyl)-1-phenyl-1H-pyrazol-5-yl)-4-methyl-3-((3-(4-pyrimidinyl)-2-pyridinyl)amino)benzamide]	< 5
Cc1ccc(C(=O)Nc2cccc(OC(C)C)c2)cc1Nc1ncccc1-c1ccncn1 [Example 151, 4-methyl-N-(3-((1-methylethyl)oxy)phenyl)-3-((3-(4-pyrimidinyl)-2-pyridinyl)amino)benzamide]	< 5
Cc1ccc(NC(=O)c2cc(C(F)(F)F)ccc2Cl)cc1Nc1ncccc1-c1ccncn1 [Example 156, 2-chloro-N-(4-methyl-3-((3-(4-pyrimidinyl)-2-pyridinyl)amino)phenyl)-5-(trifluoromethyl)benzamide]	< 5
Cc1ccc(C(=O)Nc2cc(C(F)(F)F)ccc2N2CCCCC2)cc1Nc1ncccc1-c1ccncn1 [Example 159, 4-methyl-N-(2-(1-piperidinyl)-5-(trifluoromethyl)phenyl)-3-((3-(4-pyrimidinyl)-2-pyridinyl)amino)benzamide]	< 5
COc1ccc(Oc2ccc(C(F)(F)F)cc2NC(=O)c2ccc(C)c(Nc3ncccc3-c3ccncn3)c2)cc1 [Example 160, 4-methyl-N-(2-((4-(methyloxy)phenyl)oxy)-5-(trifluoromethyl)phenyl)-3-((3-(4-pyrimidinyl)-2-pyridinyl)amino)benzamide]	< 5
Cc1ccc(C(=O)Nc2cc(C(F)(F)F)ccc2[N+](=O)[O-])cc1Nc1ncccc1-c1ccncn1 [Example 161, 4-methyl-N-(2-nitro-5-(trifluoromethyl)phenyl)-3-((3-(4-pyrimidinyl)-2-pyridinyl)amino)benzamide]	< 5
COc1ccc(C2CCCCC2)cc1NC(=O)c1ccc(C)c(Nc2ncccc2-c2ccncn2)c1 [Example 162, N-(5-cyclohexyl-2 (methyloxy)phenyl)-4-methyl-3-((3-(4-pyrimidinyl)-2-pyridinyl)amino)benzamide]	< 5
COc1ccc(C(C)(C)C)cc1NC(=O)c1ccc(C)c(Nc2ncccc2-c2ccncn2)c1 [Example 163, N-(5-(1,1-dimethylethyl)-2-(methyloxy)phenyl)-4-methyl-3-((3-(4-pyrimidinyl)-2-pyridinyl)amino)benzamide]	< 5
Cc1ccc(C(=O)Nc2ccc(N3CCOCC3)cc2)cc1Nc1ncccc1-c1ccncn1 [Example 164, 4-methyl-N-(4-(4-morpholinyl)phenyl)-3-((3-(4-pyrimidinyl)-2-pyridinyl)amino)benzamide]	< 5
CCN(CC)c1ccc(NC(=O)c2ccc(C)c(Nc3ncccc3-c3ccncn3)c2)cc1 [Example 166, N-(4-(diethylamino)phenyl)-4-methyl-3-((3-(4-pyrimidinyl)-2-pyridinyl)amino)benzamide]	< 5
Cc1ccc(C(=O)Nc2ccc(N3CCCCC3)cc2)cc1Nc1ncccc1-c1ccncn1 [Example 168, 4-methyl-N-(4-(1-piperidinyl)phenyl)-3-((3-(4-pyrimidinyl)-2-pyridinyl)amino)benzamide]	< 5
Cc1ccc(C(=O)Nc2ccc(C(C)C)cc2)cc1Nc1ncccc1-c1ccncn1 [Example 170, 4-methyl-N-(4-(1-methylethyl)phenyl)-3-((3-(4-pyrimidinyl)-2-pyridinyl)amino)benzamide]	< 5
CNc1nccc(-c2cccnc2Nc2cc(C(=O)Nc3cccc(C(C)C)c3)ccc2C)n1 [Example 200]	< 5
CNc1cc(-c2cccnc2Nc2cc(C(=O)Nc3cc(C4CCCCC4)ccc3OC)ccc2C)ncn1 [Example 204, N-(5-cyclohexyl-2-(methyloxy)phenyl)-4-methyl-3-((3-(6-(methylamino)-4-pyrimidinyl)-2-pyridinyl)amino)benzamide]	< 5
Cc1ccc(NC(=O)Nc2cccc(C(F)(F)F)c2)cc1Nc1ncccc1-c1ccncn1 [Example 212, N-(4-methyl-3-((3-(4-pyrimidinyl)-2-pyridinyl)amino)phenyl)-N′-(3-(trifluoromethyl)phenyl)urea]	< 5
Cc1ccc(C(=O)Nc2cc(C(C)(C)C)nn2-c2ccccc2)cc1Oc1ncccc1-c1ccncn1 [Example 247, N-(3-(1,1-dimethylethyl)-1-phenyl-1H-pyrazol-5-yl)-4-methyl-3-((3-(4-pyrimidinyl)-2-pyridinyl)oxy)benzamide]	< 5
COc1ccc(C2CCCCC2)cc1NC(=O)c1ccc(C)c(Oc2ncccc2-c2ccncn2)c1 [Example 248, N-(5-cyclohexyl-2-(methyloxy)phenyl)-4-methyl-3-((3-(4-pyrimidinyl)-2-pyridinyl)oxy)benzamide]	< 5
